Experimental data as given in patent publication US20260001953A1.
Results are given in words; binding and its absence hold for the method and conditions named. Some entries that bind do so weakly or less than the wild type. Each block holds one binder with its values, some of them ahead of it.

The chains behind the UniProt entries cited, without tags or fusion partners. Where a name states a change or a piece, a line headed by the entry shows the natural chain unless it says otherwise. Residues count along the entry.
UniProt Q9NYZ4: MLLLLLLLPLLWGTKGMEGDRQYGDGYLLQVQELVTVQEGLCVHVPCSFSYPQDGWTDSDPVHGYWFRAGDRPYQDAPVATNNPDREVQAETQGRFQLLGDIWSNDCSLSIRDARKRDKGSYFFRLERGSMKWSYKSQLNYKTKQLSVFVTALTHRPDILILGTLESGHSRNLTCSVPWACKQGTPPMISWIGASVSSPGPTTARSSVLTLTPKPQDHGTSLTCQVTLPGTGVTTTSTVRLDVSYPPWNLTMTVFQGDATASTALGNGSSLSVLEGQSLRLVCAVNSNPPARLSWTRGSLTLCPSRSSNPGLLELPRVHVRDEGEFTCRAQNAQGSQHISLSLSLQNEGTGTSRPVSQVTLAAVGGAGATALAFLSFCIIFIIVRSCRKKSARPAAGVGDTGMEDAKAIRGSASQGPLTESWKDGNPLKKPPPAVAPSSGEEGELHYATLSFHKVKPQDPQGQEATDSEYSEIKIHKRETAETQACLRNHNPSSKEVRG
SIGLEC-8 transiently expressed on cells: residues 17-499 of Q9NYZ4
Sialic acid-binding immunoglobulin-like lectin 8 (SIGLEC-8), antigen of the Carterra SPR studies: residues 17-363 of Q9NYZ4
UniProt P10721: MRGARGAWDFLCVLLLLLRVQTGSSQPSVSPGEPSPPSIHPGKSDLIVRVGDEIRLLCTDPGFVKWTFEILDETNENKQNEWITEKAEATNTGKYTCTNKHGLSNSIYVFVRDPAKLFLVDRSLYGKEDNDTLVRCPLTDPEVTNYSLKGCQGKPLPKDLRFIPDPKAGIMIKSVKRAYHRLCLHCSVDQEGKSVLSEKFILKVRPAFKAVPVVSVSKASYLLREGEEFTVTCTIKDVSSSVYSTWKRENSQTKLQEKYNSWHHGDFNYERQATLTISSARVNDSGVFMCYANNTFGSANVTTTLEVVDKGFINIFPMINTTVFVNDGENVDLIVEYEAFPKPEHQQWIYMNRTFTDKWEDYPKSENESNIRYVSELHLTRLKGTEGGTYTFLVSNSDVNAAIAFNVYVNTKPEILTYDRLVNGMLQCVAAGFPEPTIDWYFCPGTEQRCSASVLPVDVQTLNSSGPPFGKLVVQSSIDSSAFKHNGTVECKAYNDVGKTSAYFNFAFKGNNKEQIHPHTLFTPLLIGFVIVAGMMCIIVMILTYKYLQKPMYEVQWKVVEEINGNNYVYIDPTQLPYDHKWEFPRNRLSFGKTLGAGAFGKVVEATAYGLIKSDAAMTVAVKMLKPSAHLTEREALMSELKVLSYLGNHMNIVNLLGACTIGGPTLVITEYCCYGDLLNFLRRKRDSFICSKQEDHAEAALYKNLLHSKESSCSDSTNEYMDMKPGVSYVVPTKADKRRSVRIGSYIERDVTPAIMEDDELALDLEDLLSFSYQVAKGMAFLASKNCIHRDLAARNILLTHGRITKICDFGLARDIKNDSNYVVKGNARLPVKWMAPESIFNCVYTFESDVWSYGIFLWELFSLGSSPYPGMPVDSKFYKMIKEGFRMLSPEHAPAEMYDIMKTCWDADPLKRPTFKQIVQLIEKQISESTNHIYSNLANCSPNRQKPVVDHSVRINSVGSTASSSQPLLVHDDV
CD117 transiently expressed on Expi293 cells: residues 26-976 of P10721
Cluster of differentiation 117 (CD117), antigen of epitope binning and ELISA: residues 26-520 of P10721

Legend:
[1] = target: SIGLEC-8 transiently expressed on cells (UniProt Q9NYZ4); assay: flow cytometry histograms of the titration
[2] = target: SIGLEC-8 transiently expressed on cells (UniProt Q9NYZ4); assay: flow cytometry titration on cells transiently expressing SIGLEC-8 and on parental Expi293
[3] = target: CD117 transiently expressed on Expi293 cells (UniProt P10721); assay: FACS, Expi293 transiently expressing CD117
[4] = target: CD117 transiently expressed on Expi293 cells (UniProt P10721); assay: FACS titration, CD117-expressing vs parental cells, MFI RH-1 against nM
[5] = target: Cluster of differentiation 117 (CD117), antigen of epitope binning and ELISA (UniProt P10721); assay: clonal ELISA screening, ranked by EC50
[6] = target: CD117 transiently expressed on Expi293 cells (UniProt P10721); assay: FACS histogram, RL1-H :: APC-H, single cells
[7] = target: CD117 transiently expressed on Expi293 cells (UniProt P10721); assay: flow cytometry titration on CD117 transient cells and on parental Expi293
[8] = target: SIGLEC-8 transiently expressed on cells (UniProt Q9NYZ4); assay: flow cytometry titration, Expressing vs Parental cells
[9] = target: Sialic acid-binding immunoglobulin-like lectin 8 (SIGLEC-8), antigen of the Carterra SPR studies (UniProt Q9NYZ4); assay: comparison with immobilized lirentelimab / immobilized SIGLEC-8-40 (FIGS. 15A-15B)

B5: CD117-14 (antibody, human IgG1, kappa, V domains shown)
VH: EVQLLESGGGLVQPGGSLRLSCAASGFTFSDYAMGWVRQAPGKGLEWVSGIGGSGGSAYYADSVKGRFTISRDNSKNTLYLQMNSLRAEDTAVYYCARGFDSTDGVDYWGQGTLVTVSS
VL: DIQMTQSPSSLSASVGDRVTITCQTSQSVSSYLNWYQQKPGKAPKLLIYGASRLESGVPSRFSGSGSGTDFTLTISSLQPEDFATYYCQQSYKTPWTFGGGTKVEIKR
binding [5]: binds
binding [3]: binds
binding [6]: binds
binding [4]: binds

B6: CD117-12 (antibody, human IgG1, kappa, V domains shown)
VH: EVQLLESGGGLVQPGGSLRLSCAASGITFSSYAMTWVRQAPGKGLEWVSAISSSGTGTYYADSVKGRFTISRDNSKNTLYLQMNSLRAEDTAVYYCARERAPKDFGSSGYSFDYWGQGTLVTVSS
VL: DIQMTQSPSSLSASVGDRVTITCRASQSIDIYLNWYQQKPGKAPKLLIYKASSLQSGVPSRFSGSGSGTDFTLTISSLQPEDFATYYCQQSYTVPITFGGGTKVEIKR
binding [4]: binds

B7: CD117-4 (antibody, human IgG1, kappa, V domains shown)
VH: EVQLLESGGGLVQPGGSLRLSCAASGFTFSRSAMSWVRQAPGKGLEWVSAISAGGGNTYYADSVKGRFTISRDNSKNTLYLQMNSLRAEDTAVYYCAREQDLWSGTFDYWGQGTLVTVSS
VL: DIQMTQSPSSLSASVGDRVTITCRARQSISSYLNWYQQKPGKAPKLLIYDASSLRSGVPSRFSGSGSGTDFTLTISSLQPEDFATYYCQQSYKTPWTFGGGTKVEIKR
binding [4]: binds
binding [7]: binds

B8: CD117-8 (antibody, human IgG1, kappa, V domains shown)
VH: EVQLLESGGGLVQPGGSLRLSCAASGFTLTSYAMSWVRQAPGKGLEWVSTISGSGGYTYYADSVKGRFTISRDNSKNTLYLQMNSLRAEDTAVYYCARDSGYDRGLDYWGQGTLVTVSS
VL: DIQMTQSPSSLSASVGDRVTITCRASQSVRTYLNWYQQKPGKAPKLLIYDASTLQSGVPSRFSGSGSGTDFTLTISSLQPEDFATYYCQQSYNTPLAFGGGTKVEIKR
binding [4]: binds

B9: CD117-6 (antibody, human IgG1, kappa, V domains shown)
VH: EVQLLESGGGLVQPGGSLRLSCAASGFTFSAYALTWVRQAPGKGLEWVSAISSSGGSTFYADSVKGRFTISRDNSKNTLYLQMNSLRAEDTAVYYCARVSRGYPRRSDSWGQGTLVTVSS
VL: DIQMTQSPSSLSASVGDRVTTTCRASQGISTYLNWYQQKPGKAPKLLIYGASRLQGGVPSRFSGSGSGTDFTLTISSLQPEDFATYYCQQGYSFPWTFGGGTKVEIKR
binding [5]: binds
binding [3]: binds
binding [6]: binds
binding [4]: binds

B10: CD117-2 (antibody, human IgG1, kappa, V domains shown)
VH: EVQLLESGVGLVQPGGSLRLSCAASGFSFGSYAMSWVRQAPGKGLEWVSSISGSGGTTYYADSVKGRFTISRDNSKNTLYLQMNSLRAEDTAVYYCARDPDDYGDYYFDYWGQGTLVTVSS
VL: DIQMTQSPSSLSASVGDRVTITCRASQSIGEYLNWYQQKPGKAPKLLIYATSSLQRGVPSRFSGSGSGTDFTLTISSLQPEDFATYYCQQSHTTPYTFGGGTKVEIKR
binding [5]: binds
binding [6]: binds
binding [7]: binds

B11: CD117-9 (antibody, human IgG1, kappa, V domains shown)
VH: EVQLLESGGGLVQPGGSLRLSCAASGFSFTNYAMSWVRQAPGKGLEWVSSISGSGGSTYYADSVKGRFTISRDNSKNTLYLQMNSLRAEDTAVYYCARGSGSYFGFDFWGQGTLVTVSS
VL: DIQMTQSPSSLSASVGDRVTITCRASQGIGTYLNWYQQKPGKAPKLLIYAASSLQPGVPSRFSGSGSGTDFTLTISSLQPEDFATYYCQQSYRPPFTFGGGTKVEIKR
binding [5]: binds
binding [6]: binds

B12: CD117-1 (antibody, human IgG1, kappa, V domains shown)
VH: EVQLLESGGGLVQPGGSLRLSCAASGFTLTSYAMSWVRQAPGKGLEWVSTISGSGGYTYYADSVKGRFTISRDNSKNTLYLQMNSLRAEDTAVYYCARDSGYDRGLDYWGQGTLVTVSS
VL: DIQMTQSPSSLSASVGDRVTITCRASQSVRTYLNWYQQKPGKAPKLLIYDASTLQSGVPSRFSGSGSGTDFTLTISSLQPEDFATYYCQQSYSSSITFGGGTKVEIKR
binding [7]: binds

B14: CD117-7 (antibody, human IgG1, kappa, V domains shown)
VH: EVQLLESGGGLVQPGGSLRLSCAASGFTFSDYAMGWVRQAPGKGLEWVSGIGGSGGSAYYADSVKGRFTISRDNSKNTLYLQMNSLRAEDTAVYYCARGFDSTDGVDYWGQGTLVTVSS
VL: DIQMTQSPSSLSASVGDRVTITCRASQSIGNYLNWYQQKPGKAPKLLIYAASDLQTGVPSRFSGSGSGTDFTLTISSLQPEDFATYYCQQGYSTPYTFGGGTKVEIKR
binding [3]: binds

B15: CD117-10 (antibody, human IgG1, kappa, V domains shown)
VH: EVQLLESGGGLVQPGGSLRLSCAASGFIFSSYAMTWVRQAPGKGLEWVSSISGRGGNTYYADSVKGRFTISRDNSKNTLYLQMNSLRAEDTAVYYCAKMMDDFYDAFNMWGQGTLVTVSS
VL: DIQMTQSPSSLSASVGDRVTITCRASQSIRTYLNWYQQKPGKAPKLLIYDASSLESGVPSRFSGSGSGTDFTLTISSLQPEDFATYYCQQSFTTPYTFGGGTKVEIKR
binding [3]: binds

B17: CD117-11 (antibody, human IgG1, kappa, V domains shown)
VH: EVQLLESGGGLVQPGGSLRLSCAASGFTFGNFAMSWVRQAPGKGLEWVSLISGSGGNTYYADSVKGRFTISRDNSKNTLYLQMNSLRAEDTAVYYCARGDGVNGFDYWGQGTLVTVSS
VL: DIQMTQSPSSLSASVGDRVTITCRASQSIPTYLNWYQQKPGKAPKLLIYATSTLESGVPSRFSGSGSGTDFTLTISSLQPEDFATYYCQQTYSTPYTFGGGTKVEIKR
binding [3]: binds

Continued, values first:

binding [1]: binds
binding [2]: binds
B1: SIGLEC-8-1 (antibody, human IgG1, kappa, V domains shown)
VH: EVQLLESGGGLVQPGGSLRLSCAASGFTFSNFPMSWVRQAPGKGLEWVSSISGTGSSTYYADSVKGRFTISRDNSKNTLYLQMNSLRAEDTAVYYCVREGRYFYYAMDVWGQGTLVTVSS
VL: DIQMTQSPSSLSASVGDRVTITCRASQNIAGYLNWYQQKPGKAPKLLIYAASNLHTGVPSRFSGSGSGTDFTLTISSLQPEDFATYYCQQSYSTPLAFGGGTKVEIKR

binding [3]: binds
binding [4]: binds
B2: CD117-18 (antibody, human IgG1, kappa, V domains shown)
VH: EVQLLESGGGLVQPGGSLRLSCAASGFTFSDYSMNWVRQAPGKGLEWVSAITGSGGNTFYADSVKGRFTISRDNSKNTLYLQMNSLRAEDTAVYYCARSNYEQDVFDIWGQGTLVTVSS
VL: DIQMTQSPSSLSASVGDRVTITCRASQTIYRYLNWYQQKPGKAPKLLIYDASDLQSGVPSRFSGSGSGTDFTLTISSLQPEDFATYYCQQSYSIPITFGGGTKVEIKR

binding [4]: binds
B3: CD117-20 (antibody, human IgG1, kappa, V domains shown)
VH: EVQLLESGGGLVQPGGSLRLSCAASGFTFSSDAMNWVRQAPGKGLEWVSGISGSGGYTYYADSVKGRFTISRDNSKNTLYLQMNSLRAEDTAVYYCARSGNVVGDGMDVWGQGTLVTVSS
VL: DIQMTQSPSSLSASVGDRVTITCRASQNIRRYLNWYQQKPGKAPKLLIYDASTLESGVPSRFSGSGSGTDFTLTISSLQPEDFATYYCQQSHTTPLTFGGGTKVEIKR

binding [4]: binds
B4: CD117-19 (antibody, human IgG1, kappa, V domains shown)
VH: EVQLLESGGGLVQPGGSLRLSCAASGFSFSSYAMSWVRQAPGKGLEWVSAISGTGGNTYYADSVKGRFTISRDNSKNTLYLQMNSLRAEDTAVYYCARRNDFWSDAFDIWGQGTLVTVSS
VL: DIQMTQSPSSLSASVGDRVTITCRASQNIYTYLNWYQQKPGKAPKLLIYDASSLHSGVPSRFSGSGSGTDFTLTISSLQPEDFATYYCQQSYSSSITFGGGTKVEIKR

binding [8]: binds
B13: SIGLEC-8-51 (antibody, human IgG1, kappa, V domains shown)
VH: EVQLLESGGGLVQPGGSLRLSCAASGFTFPRYGMSWVRQAPGKGLEWVTATSGSGGTTYYADSVKGRFTISRDNSKNTLYLQMNSLRAEDTAVYYCARDESSGWYPKDYWGQGTLVTVSS
VL: DIQMTQSPSSLSASVGDRVTITCRASQSVSRFLNWYQQKPGKAPKLLIYGASNLEGGVPSRFSGSGSGTDFTLTISSLQPEDFATYYCQQSYTTPHTFGGGTKVEIKR

binding [3]: binds
B16: CD117-17 (antibody, human IgG1, kappa, V domains shown)
VH: EVQLLESGGGLVQPGGSLRLSCAASGFTFSDYPMSWVRQAPGKGLEWVSAIGGSGGDTYYADSVKGRFTISRDNSKNTLYLQMNSLRAEDTAVYYCARGAYDGEGFDYWGQGTLVTVSS
VL: DIQMTQSPSSLSASVGDRVTITCRASQTISGYLNWYQQKPGKAPKLLIYDASTLQRGVPSRFSGSGSGTDFTLTISSLQPEDFATYYCQQNYRTPFTFGGGTKVEIKR

binding [9]: binds
B18: SIGLEC-8-40 (antibody, human IgG1, kappa, V domains shown)
VH: EVQLLESGGGLVQPGGSLRLSCAASGFTFSFFDMMWVRQAPGKGLEWVSQISETGRRTYYADSVKGRFTISRDNSKNTLYLQMNSLRAEDTAVYYCATAEDEQGYDYWGQGTLVTVSS
VL: DIQMTQSPSSLSASVGDRVTITCRASQSINFWLRWYQQKPGKAPKLLIYGTTSLESGVPSRFSGSGSGTDFTLTISSLQPEDFATYYCQQTATWPFTFGQGTKVEIKR
